Results deposited as PubChem BioAssay AID1508597 (Cure First, 2020)
Aim: 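Genes whose silencing sensitises or protects ovarian cancer cells against rucaparib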 (primary screen). Cells: human ovarian carcinoma lines grown from tumours: OCI-P5x (papillary serous) and OCI-C5x (clear cell). Knock-down reagent: siRNA pool against human genes, 1.25 pmol siRNA per well. Duration: 72 h or 96 h, depending on the cell culture. Challenge: rucaparib 20 µM (about IC30) or vehicle, present until read-out. Rucaparib or vehicle: Rucaparib. Cell line: OCI-P5x (serous). Measurement: 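Luminescent ATP-based viability assay read 72 or 96 h after transfection, depending on culture, given as normalised percent viability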. Scale: viability, normalised: higher = more viable cells remaining. Call rule: 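a well counts as a hit if its normalised viability is under 80 percent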. Calls: active = viability under 80%; inactive = viability 80% or more.
Shown is an unselected part of the about 2,100 reagents, under one of the conditions tested. 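Calls flag viability under 80% in either arm, not effects specific to rucaparib; the reference for percent is not stated.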 Entries without a mark were called inactive. A reagent listed more than once was tested more than once; the source does not tell the runs apart. Not stated in the record: the 100% reference.

gene symbol	technical replicate	viability, normalised (%)
CHMP5 (charged multivesicular body protein 5)	1	66.8 (active)
CHMP5 (charged multivesicular body protein 5)	2	39 (active)
CHMP5 (charged multivesicular body protein 5)	3	58.7 (active)
RRM2B	1	73.8 (active)
RRM2B	2	90.2
RRM2B	3	74 (active)
BAHD1 (bromo adjacent homology domain containing 1)	1	68.8 (active)
BAHD1 (bromo adjacent homology domain containing 1)	2	87.8
BAHD1 (bromo adjacent homology domain containing 1)	3	83.8
ATRX (ATRX chromatin remodeler)	1	66.3 (active)
ATRX (ATRX chromatin remodeler)	1	78.8 (active)
ATRX (ATRX chromatin remodeler)	2	82.7
ATRX (ATRX chromatin remodeler)	2	74.1 (active)
ATRX (ATRX chromatin remodeler)	3	87.7
ATRX (ATRX chromatin remodeler)	3	77.6 (active)
MAPK10 (mitogen-activated protein kinase 10)	1	91.4
MAPK10 (mitogen-activated protein kinase 10)	2	91.8
MAPK10 (mitogen-activated protein kinase 10)	3	81
MED26 (mediator complex subunit 26)	1	50.1 (active)
MED26 (mediator complex subunit 26)	2	61.8 (active)
MED26 (mediator complex subunit 26)	3	61.3 (active)
SMG1	1	98.4
SMG1	2	98.4
SMG1	3	105
SMPD4 (sphingomyelin phosphodiesterase 4)	1	50.4 (active)
SMPD4 (sphingomyelin phosphodiesterase 4)	2	62.6 (active)
SMPD4 (sphingomyelin phosphodiesterase 4)	3	58.4 (active)
CDK13 (cyclin dependent kinase 13)	1	99.8
CDK13 (cyclin dependent kinase 13)	2	94.9
CDK13 (cyclin dependent kinase 13)	3	94.8
IGF2R (insulin like growth factor 2 receptor)	1	34.7 (active)
IGF2R (insulin like growth factor 2 receptor)	2	37.8 (active)
IGF2R (insulin like growth factor 2 receptor)	3	36.2 (active)
SMARCD2 (SWI/SNF related BAF chromatin remodeling complex subunit D2)	1	46.7 (active)
SMARCD2 (SWI/SNF related BAF chromatin remodeling complex subunit D2)	2	59.5 (active)
SMARCD2 (SWI/SNF related BAF chromatin remodeling complex subunit D2)	3	46.7 (active)
PRDM13 (PR/SET domain 13)	1	37.5 (active)
PRDM13 (PR/SET domain 13)	2	51.7 (active)
PRDM13 (PR/SET domain 13)	3	47.8 (active)
PGGT1B (protein geranylgeranyltransferase type I subunit beta)	1	37.4 (active)
PGGT1B (protein geranylgeranyltransferase type I subunit beta)	2	43.3 (active)
PGGT1B (protein geranylgeranyltransferase type I subunit beta)	3	42.8 (active)
DOT1L (DOT1 like histone lysine methyltransferase)	1	53.2 (active)
DOT1L (DOT1 like histone lysine methyltransferase)	2	73 (active)
DOT1L (DOT1 like histone lysine methyltransferase)	3	78 (active)
DHX37 (DEAH-box helicase 37)	1	57.4 (active)
DHX37 (DEAH-box helicase 37)	2	50.1 (active)
DHX37 (DEAH-box helicase 37)	3	44.6 (active)
MAST3 (microtubule associated serine/threonine kinase 3)	1	67.2 (active)
MAST3 (microtubule associated serine/threonine kinase 3)	2	79.9 (active)
MAST3 (microtubule associated serine/threonine kinase 3)	3	79.3 (active)
VPS72 (vacuolar protein sorting 72 homolog)	1	55.1 (active)
VPS72 (vacuolar protein sorting 72 homolog)	2	62.3 (active)
VPS72 (vacuolar protein sorting 72 homolog)	3	52.7 (active)
OARD1 (O-acyl-ADP-ribose deacylase 1)	1	55.3 (active)
OARD1 (O-acyl-ADP-ribose deacylase 1)	2	84.8
OARD1 (O-acyl-ADP-ribose deacylase 1)	3	72.5 (active)
HIPK3 (homeodomain interacting protein kinase 3)	1	94.5
HIPK3 (homeodomain interacting protein kinase 3)	2	85.7
HIPK3 (homeodomain interacting protein kinase 3)	3	86.8
LATS1 (large tumor suppressor kinase 1)	1	103
LATS1 (large tumor suppressor kinase 1)	1	71.1 (active)
LATS1 (large tumor suppressor kinase 1)	2	65.3 (active)
LATS1 (large tumor suppressor kinase 1)	2	126
LATS1 (large tumor suppressor kinase 1)	3	100
LATS1 (large tumor suppressor kinase 1)	3	93.9
EXO1 (exonuclease 1)	1	64.2 (active)
EXO1 (exonuclease 1)	2	82.2
EXO1 (exonuclease 1)	3	71.1 (active)
EIF2AK4 (eukaryotic translation initiation factor 2 alpha kinase 4)	1	134
EIF2AK4 (eukaryotic translation initiation factor 2 alpha kinase 4)	2	164
EIF2AK4 (eukaryotic translation initiation factor 2 alpha kinase 4)	3	144
GALK2 (galactokinase 2)	1	71 (active)
GALK2 (galactokinase 2)	2	91.6
GALK2 (galactokinase 2)	3	72.2 (active)
